Source: ChEMBL document CHEMBL3988442, “University of Dundee, Small-Polar-MMV Screening Library” (2021).

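Whole-cell growth test on Mycobacterium tuberculosis, read after 3 days in glucose-containing 7H9 medium; the read-out is not stated. Compounds at 50 µM. The record gives no direction; compounds that gave an IC50 in retests scored well above the rest, so higher reads as more growth inhibition. Size under these conditions: about 69,000 compounds, about 760 of them at 50% or above in at least one test.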

Each number is a percent effect as filed. The controls that fix the scale are not given in the record; negative values are as filed. This is an unselected part of the compounds tested. Two or more numbers in one place are separate tests of the same structure; such repeats can differ widely.

structure,effect
CCOC(=O)CCNC(=O)N1CCCC(CNC(=O)c2ccco2)C1 (centres undefined),-3.659
Cc1c(OCC(=O)NCc2ccccc2Cl)c(=O)ccn1C,0.1386
CN(C)C(=O)N1Cc2ccccc2C2(CCN(C3CCOCC3)CC2)C1,29.55
CCc1ccccc1Nc1noc2c1CN(C(=O)C1CCCO1)CC2 (centres undefined),-3.61
NC(=O)CN1CCCN(C(=O)Cc2ccc3c(c2)OCO3)CC1,-32.95
CCNC(=O)[C@@H]1CCCN1C1(C(=O)NC)CCC1.Cl,-18.84 and 2.017
O=C(CN1CCN(CCO)CC1)NCc1ccc(Cl)s1,-5.861
O=C(c1cccnc1)N(CCO)Cc1cc(Br)ccc1F,2.657 and 105.7
O=C(O)C(F)(F)F.[H][C@@]12CCN(C(=O)c3ccc(C#N)cc3)[C@]1([H])CCC(=O)N2CCN(C)C,-15.02 and 0.5776
O=C(O)C(F)(F)F.[H][C@@]12COC[C@@H](CC(=O)N3CCCC3)[C@]1([H])CN(Cc1ccc(F)cc1)C2,-4.171
Cc1ccc(-c2nc(C(=O)N(C)CC(=O)N3CCCC3)cs2)c(C)c1,-42.15 and 9.998
Cn1ccnc1CN1CCC(Cn2cc(-c3ccncc3)nn2)CC1,9.099
CCN1CC(C(=O)NC(C)(C)C)CC1=O (centres undefined),-3.505 and -2.612
CNC(=O)c1ccnc(CC2COc3c(cccc3OC)C2)c1 (centres undefined),-13.83
Cc1noc(C)c1C(=O)NCCN1CCN(S(C)(=O)=O)CC1,5.251
Cc1nc(C)n(CC2CN(CCCOc3ccc(F)cc3)CCO2)n1 (centres undefined),25.36
Cc1cnn(C2CCCN(C(=O)c3ccc(OCC4CC4)nc3)C2)c1 (centres undefined),18.27
O=C(O)C(F)(F)F.O=C(O)C(F)(F)F.[H][C@@]12CN(Cc3ccoc3)C[C@]1([H])OCCN2c1ccc(C)nn1,-41.09
O=C1NCC(c2ccc(Cl)cc2)Cc2[nH]c(CCN3CCOCC3)nc21 (centres undefined),9.279 and 2.303
O=C(CN1CSCC1=O)NCC1CCN(c2ccccc2)C1 (centres undefined),21.51
CCN(CC1CCOC1)C(=O)c1ccccc1NS(=O)(=O)CC (centres undefined),-17.65
[H][C@]12C[C@H](C(=O)NC)N(S(C)(=O)=O)[C@@]1([H])CN(C(=O)c1ccco1)C2,18.55
Cn1c(NCC(O)c2ccccc2F)c(C#N)c(=O)n(C)c1=O (centres undefined),-3.454
Cc1cc(C)c2c(NCc3nncn3C3CCCCC3)ncnc2n1,1.517
CCOc1ccc(C2C3=C(O)OCC3=Nc3nc(SC)nc(N)c32)cc1 (centres undefined),-12.65
Cc1cccc(CN2Cc3[nH]nc(COCCO)c3C2)n1.O=C(O)C(F)(F)F,13.17 and 2.147
Cc1ccccc1C(=O)NC(C)c1cnn(C)c1 (centres undefined),11.93
N#CC1(NC(=O)COc2cc(Cl)cc(Cl)c2)CCSC1 (centres undefined),34.99 and 18.79
Cc1cnc(CN2CCN(c3ccc4nncn4n3)C(C)C2)cn1 (centres undefined),6.588
Cc1nn(C)c(N2CCOCC2)c1CNC1CCOc2ccccc21 (centres undefined),-8.107
COCc1nc2ncc3c(=O)n(-c4ccccc4OC)ccc3n2n1,17.72
COc1ccc2nc(C[C@@H]3C[C@@H](C(C)C)[C@H](CN(C)C)C=C3C)[nH]c2n1,7.012 and 17.73
CC(C)(C)c1cnc(CN2CCC(NC(=O)CC3CCCC3)CC2)o1,23.77
Cc1ccc(C(N)c2cccc(S(C)(=O)=O)c2)cc1 (centres undefined),5.967
Cc1ccccc1C1CCCN1C(=O)CN1CC2(CCNCC2)OC1=O (centres undefined),23.16
O=S(=O)(CC1CC1)c1ncc(CN2CCOCC2)n1CC1CCCO1 (centres undefined),-9.081
O=c1cc(CN(CCO)C2CC2)nc2ccccn12,-15.76
COCC(Nc1nc(N(C)C)nc2c1CCNCC2)c1ccccn1 (centres undefined),8.164
COc1cc2c(cc1CNC(=O)Cc1ccc(C)nc1)OC(C)C2 (centres undefined),-4.014
CC(=O)NC1CCCN(Cc2ccc(-n3ccnc3)cc2)C1 (centres undefined),-17.28
CN1C(=O)C2(CCN(S(C)(=O)=O)CC2)c2cc(F)ccc21.Cl,-7.475
CCc1c(O)nc2nc(N3CCOCC3)nn2c1C,6.127
CN(C)CC(=O)N1CC2(CCN(C(=O)Nc3ccccc3)C2)C1.O=C(O)C(F)(F)F,-12.06
CCC(=O)N1CCC2(CC1)CC(Oc1ccccc1)CO2 (centres undefined),26.9 and 19.5
CC(C)(C)CN(CCO)C(=O)Nc1cccc(N2CCNC2=O)c1,-3.013 and -0.9852
Cc1cc(F)ccc1-n1cc(O)c(C(N)=O)n1,-2.546
COCC(=O)N1CCC(c2nc3ccc(-c4ccncc4)cn3n2)CC1.O=C(O)C(F)(F)F,-7.342 and -13.08
O=C(CC1NC(N2CCc3ccccc32)=NC1=O)Nc1ccccc1 (centres undefined),-40.95 and 3.05
CC(C)c1sc(Cl)nc1C(=O)NCc1ccncc1,4.498 and 7.423
CC(C)Oc1cccc(Cc2nc3c([nH]2)CCCNC3=O)c1,48.53
CC(C)c1nc(CC(=O)Nc2cnccc2O)cs1,-12.38
CN(Cc1ccon1)C(=O)CN1C(=O)OC(C)(C)C1=O,0.7899 and 7.97
O=C1c2ccccc2C(=O)N1CC(O)Cn1nc(-c2cccs2)oc1=O (centres undefined),-33.34
CC(C)(C)Cc1noc2ncc(C(=O)N3CCCSCC3)cc12,30.13
O=C(O)C(F)(F)F.O=C(O)C(F)(F)F.[H][C@@]12CN(C(=O)c3ccsc3)C[C@]1([H])OCCN2CCN1CCCC1,-43.25
CC1CS(=O)(=O)CCN1CCCc1ccc(C(F)(F)F)cc1 (centres undefined),14.37 and 32.59
COCC1CN(C(=O)c2cccn2C)Cc2nccn2C1 (centres undefined),0.1556

The first 5 entries again:

| structure | effect |
|---|---|
| `CCOC(=O)CCNC(=O)N1CCCC(CNC(=O)c2ccco2)C1` (centres undefined) | -3.659 |
| `Cc1c(OCC(=O)NCc2ccccc2Cl)c(=O)ccn1C` | 0.1386 |
| `CN(C)C(=O)N1Cc2ccccc2C2(CCN(C3CCOCC3)CC2)C1` | 29.55 |
| `CCc1ccccc1Nc1noc2c1CN(C(=O)C1CCCO1)CC2` (centres undefined) | -3.61 |
| `NC(=O)CN1CCCN(C(=O)Cc2ccc3c(c2)OCO3)CC1` | -32.95 |